In patent US20190010498:
For part of these data: No signal at the amounts used counts as a negative.

Chains of the proteins cited; added tags and fusions are not shown. A line that says so, or that is headed by a name, gives the form on record, which may keep a tag or linker. Residues count along the entry.
UniProt P22756, 31-949: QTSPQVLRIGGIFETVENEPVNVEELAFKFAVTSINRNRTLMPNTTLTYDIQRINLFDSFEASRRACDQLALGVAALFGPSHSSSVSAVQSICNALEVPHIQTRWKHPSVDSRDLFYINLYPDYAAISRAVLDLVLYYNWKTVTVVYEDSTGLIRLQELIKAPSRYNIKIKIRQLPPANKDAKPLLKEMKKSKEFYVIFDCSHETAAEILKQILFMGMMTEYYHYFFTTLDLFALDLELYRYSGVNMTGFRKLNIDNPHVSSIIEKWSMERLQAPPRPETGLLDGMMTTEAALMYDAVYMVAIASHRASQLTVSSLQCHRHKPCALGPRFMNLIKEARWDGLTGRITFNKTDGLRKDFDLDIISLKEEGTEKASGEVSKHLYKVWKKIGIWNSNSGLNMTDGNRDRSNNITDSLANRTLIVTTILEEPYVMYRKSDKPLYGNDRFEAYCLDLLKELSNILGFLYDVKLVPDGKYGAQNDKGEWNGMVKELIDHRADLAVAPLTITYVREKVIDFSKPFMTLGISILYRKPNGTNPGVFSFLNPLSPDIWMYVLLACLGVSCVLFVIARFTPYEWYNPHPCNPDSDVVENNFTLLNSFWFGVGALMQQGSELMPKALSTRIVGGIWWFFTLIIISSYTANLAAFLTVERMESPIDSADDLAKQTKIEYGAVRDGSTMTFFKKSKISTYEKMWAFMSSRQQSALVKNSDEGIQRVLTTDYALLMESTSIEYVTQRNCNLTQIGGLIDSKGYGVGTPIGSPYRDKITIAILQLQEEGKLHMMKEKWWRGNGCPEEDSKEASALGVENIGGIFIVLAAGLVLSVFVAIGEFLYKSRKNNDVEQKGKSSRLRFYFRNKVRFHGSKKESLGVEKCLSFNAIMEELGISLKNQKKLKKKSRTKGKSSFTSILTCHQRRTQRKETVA
UniProt P42260, 32-908: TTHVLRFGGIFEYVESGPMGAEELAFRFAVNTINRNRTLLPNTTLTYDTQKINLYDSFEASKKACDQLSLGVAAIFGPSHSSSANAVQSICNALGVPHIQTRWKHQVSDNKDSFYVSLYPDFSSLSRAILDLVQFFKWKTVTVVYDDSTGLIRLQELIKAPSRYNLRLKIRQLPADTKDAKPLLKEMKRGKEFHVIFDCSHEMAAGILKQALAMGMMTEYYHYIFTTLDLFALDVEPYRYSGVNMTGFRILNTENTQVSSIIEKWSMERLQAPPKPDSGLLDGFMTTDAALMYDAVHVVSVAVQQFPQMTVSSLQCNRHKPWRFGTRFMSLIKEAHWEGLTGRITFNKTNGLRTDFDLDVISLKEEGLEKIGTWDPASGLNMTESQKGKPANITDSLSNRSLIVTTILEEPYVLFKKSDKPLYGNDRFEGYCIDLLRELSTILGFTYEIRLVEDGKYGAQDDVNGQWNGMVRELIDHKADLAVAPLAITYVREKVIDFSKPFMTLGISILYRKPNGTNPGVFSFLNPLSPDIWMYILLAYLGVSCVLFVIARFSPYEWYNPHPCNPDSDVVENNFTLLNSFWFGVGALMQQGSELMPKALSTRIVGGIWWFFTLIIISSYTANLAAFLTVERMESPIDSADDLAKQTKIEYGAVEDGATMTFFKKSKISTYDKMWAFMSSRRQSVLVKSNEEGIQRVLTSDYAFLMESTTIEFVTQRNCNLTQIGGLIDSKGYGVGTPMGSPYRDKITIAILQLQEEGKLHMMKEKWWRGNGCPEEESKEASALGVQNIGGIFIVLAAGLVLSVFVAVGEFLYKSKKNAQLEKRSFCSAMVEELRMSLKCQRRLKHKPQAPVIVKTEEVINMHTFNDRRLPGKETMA
GluA2Qflip AMPA receptor (homomeric, Q/R site unedited), one chain, as listed by the source: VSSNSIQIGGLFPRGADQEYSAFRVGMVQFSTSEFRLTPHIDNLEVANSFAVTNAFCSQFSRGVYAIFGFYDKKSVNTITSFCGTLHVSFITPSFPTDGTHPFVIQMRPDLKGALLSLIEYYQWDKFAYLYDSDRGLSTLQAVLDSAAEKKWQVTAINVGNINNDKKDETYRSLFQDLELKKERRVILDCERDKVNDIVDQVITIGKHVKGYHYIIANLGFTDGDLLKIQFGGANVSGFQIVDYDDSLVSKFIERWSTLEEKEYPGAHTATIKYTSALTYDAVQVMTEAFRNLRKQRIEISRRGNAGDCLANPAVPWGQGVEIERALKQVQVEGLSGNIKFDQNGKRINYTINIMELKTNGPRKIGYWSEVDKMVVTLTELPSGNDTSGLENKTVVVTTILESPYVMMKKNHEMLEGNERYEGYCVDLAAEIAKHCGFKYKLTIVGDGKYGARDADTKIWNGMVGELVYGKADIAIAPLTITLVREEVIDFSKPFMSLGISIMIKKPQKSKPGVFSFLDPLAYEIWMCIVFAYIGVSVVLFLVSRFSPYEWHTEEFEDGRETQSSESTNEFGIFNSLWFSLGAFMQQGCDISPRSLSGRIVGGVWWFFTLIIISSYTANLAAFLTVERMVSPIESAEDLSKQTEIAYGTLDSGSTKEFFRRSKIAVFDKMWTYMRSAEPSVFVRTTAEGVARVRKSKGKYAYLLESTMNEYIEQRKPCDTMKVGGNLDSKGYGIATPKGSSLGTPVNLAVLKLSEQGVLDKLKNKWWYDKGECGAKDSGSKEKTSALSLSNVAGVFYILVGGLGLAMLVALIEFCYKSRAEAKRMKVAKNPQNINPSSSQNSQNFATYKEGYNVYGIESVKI

Assays:
Assay in all cases: inhibition of the protein
[1] = molecular target: GluK1 kainate receptor (UniProt P22756); conditions: 2'-F at all A, C and U; G is 2'-OH; 2 uM aptamer, both closed- and open-channel inhibited; protein on the cell surface; protein details: transiently expressed in HEK-293S cells; label: 32P (hot ligand in binding assay)
[2] = molecular target: GluK2 kainate receptor (UniProt P42260); conditions: 2'-F at all A, C and U; G is 2'-OH; 2 uM aptamer, no inhibition; protein on the cell surface; protein details: transiently expressed in HEK-293S cells; label: 32P (hot ligand in binding assay)
[3] = tested on: GluA2Qflip AMPA receptor (homomeric, Q/R site unedited); conditions: 2'-F at all A, C and U; G is 2'-OH; 1 uM aptamer, 0.1 mM glutamate; functional assay, no inhibition; protein on the cell surface

Row | Sequence | functional effect of the aptamer [1] | functional effect of the aptamer [2] | functional effect of the aptamer [3]
1 | GGGAGAAUUCAACUGCCAUCUAGGCACGCUACUGUGAGUGUUGUGAUGGCGGCUGAACGAUCGAAACGGAACUGUAGUACUACAAGCUUCUGGACUCGGU [FN1040] | active | not active | –
2 | GGGAGAAUUCAACUGCCAUCUAGGCGGUAGGUGAUCAGCUAGAAUCUCUGAAACGGAACUGUAGUAUAAAAAAAGAGUACUACAAGCUUCUGGACUCGGU [FN1138] | – | – | not active
